# Assay results reported in paper doi:10.1101/2022.06.09.495453.
# The chains behind the UniProt entries cited, without tags or fusion partners. Where a name states a change or a piece, a line headed by the entry shows the natural chain unless it says otherwise.
# UniProt Q9UI95, whole entry: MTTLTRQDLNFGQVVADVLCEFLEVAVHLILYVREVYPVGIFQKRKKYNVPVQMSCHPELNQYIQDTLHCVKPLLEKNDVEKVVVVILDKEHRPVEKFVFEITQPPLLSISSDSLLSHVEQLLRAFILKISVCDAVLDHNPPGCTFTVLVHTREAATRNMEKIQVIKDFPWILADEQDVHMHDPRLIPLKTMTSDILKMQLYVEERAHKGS
# These are yes or no findings as the source states them, for the method shown. Some entries that bind do so weakly or less than the wild type. For part of these data: Sequences can lack the tags named with a protein.
# Assays:
# [1] = molecular target: T1, SHLD3 (full length) (human) (UniProt Q6ZNX1); assay: co-purification
# T1 sequence: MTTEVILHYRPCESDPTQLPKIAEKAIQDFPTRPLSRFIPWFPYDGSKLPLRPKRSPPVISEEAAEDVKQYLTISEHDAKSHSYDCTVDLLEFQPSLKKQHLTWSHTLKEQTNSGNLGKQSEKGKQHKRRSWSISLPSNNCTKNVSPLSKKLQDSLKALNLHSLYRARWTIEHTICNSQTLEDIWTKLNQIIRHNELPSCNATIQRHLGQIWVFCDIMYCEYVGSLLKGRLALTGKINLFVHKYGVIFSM
# MBP-SHLD3^45-60 (human) = molecular target: T2, MBP-SHLD3^45-60 (human) (UniProt Q6ZNX1); assay: pull-down
# T2 sequence: DGSKLPLRPKRSPPVI
Substance,binding [1],binding (MBP-SHLD3^45-60 (human))
REV7 of the SHLD3-SHLD2^1-95-REV7 ternary complex (Shieldin) (from UniProt Q9UI95 1-211),binds,
REV7^WT (from UniProt Q9UI95 1-211),,binds
REV7^R124A of the SHLD3-SHLD2^1-95-REV7^R124A complex (from UniProt Q9UI95 1-211),binds,
